From paper PMC10074118
Results are given in words; binding and its absence hold for the method and conditions named. Binding seen in cells or lysates may run through a third protein. Some entries that bind do so weakly or less than the wild type. For some of these results: Tags and fused reporters may be left off the sequences shown. Blank lines part the entries; values can stand above or below the binder they belong to.

Assays:
HA-tagged BBS1 = target: T1, HA-tagged BBS1 (UniProt Q8NFJ9); experiment: co-IP; HEK293 cells transiently co-transfected with flag-PJA2 (wild type or Δ550-570) and HA-tagged BBS vectors; lysis in 150 mM NaCl, 50 mM Tris-HCl pH 7.5, 1 mM EDTA, 0.5% NP40; immunoprecipitation overnight with anti-HA (or anti-flag); immunoblot for HA and flag
T1 sequence: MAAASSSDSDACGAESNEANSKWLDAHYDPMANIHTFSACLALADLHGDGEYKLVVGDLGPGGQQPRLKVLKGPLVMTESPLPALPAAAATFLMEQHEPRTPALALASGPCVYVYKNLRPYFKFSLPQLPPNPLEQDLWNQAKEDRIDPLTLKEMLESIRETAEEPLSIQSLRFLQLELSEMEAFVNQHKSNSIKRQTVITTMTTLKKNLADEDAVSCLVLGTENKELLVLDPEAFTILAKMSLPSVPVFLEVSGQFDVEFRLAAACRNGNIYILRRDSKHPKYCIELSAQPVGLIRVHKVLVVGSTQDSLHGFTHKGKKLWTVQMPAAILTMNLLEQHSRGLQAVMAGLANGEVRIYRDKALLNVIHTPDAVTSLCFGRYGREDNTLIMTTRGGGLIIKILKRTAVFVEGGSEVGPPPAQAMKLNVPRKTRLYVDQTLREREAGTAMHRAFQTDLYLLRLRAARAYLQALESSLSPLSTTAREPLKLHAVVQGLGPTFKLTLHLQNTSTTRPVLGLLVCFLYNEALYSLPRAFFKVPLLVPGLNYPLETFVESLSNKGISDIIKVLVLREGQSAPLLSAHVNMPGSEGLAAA

HA-tagged BBS2 = target: T2, HA-tagged BBS2 (UniProt Q9BXC9); experiment: as above
T2 sequence: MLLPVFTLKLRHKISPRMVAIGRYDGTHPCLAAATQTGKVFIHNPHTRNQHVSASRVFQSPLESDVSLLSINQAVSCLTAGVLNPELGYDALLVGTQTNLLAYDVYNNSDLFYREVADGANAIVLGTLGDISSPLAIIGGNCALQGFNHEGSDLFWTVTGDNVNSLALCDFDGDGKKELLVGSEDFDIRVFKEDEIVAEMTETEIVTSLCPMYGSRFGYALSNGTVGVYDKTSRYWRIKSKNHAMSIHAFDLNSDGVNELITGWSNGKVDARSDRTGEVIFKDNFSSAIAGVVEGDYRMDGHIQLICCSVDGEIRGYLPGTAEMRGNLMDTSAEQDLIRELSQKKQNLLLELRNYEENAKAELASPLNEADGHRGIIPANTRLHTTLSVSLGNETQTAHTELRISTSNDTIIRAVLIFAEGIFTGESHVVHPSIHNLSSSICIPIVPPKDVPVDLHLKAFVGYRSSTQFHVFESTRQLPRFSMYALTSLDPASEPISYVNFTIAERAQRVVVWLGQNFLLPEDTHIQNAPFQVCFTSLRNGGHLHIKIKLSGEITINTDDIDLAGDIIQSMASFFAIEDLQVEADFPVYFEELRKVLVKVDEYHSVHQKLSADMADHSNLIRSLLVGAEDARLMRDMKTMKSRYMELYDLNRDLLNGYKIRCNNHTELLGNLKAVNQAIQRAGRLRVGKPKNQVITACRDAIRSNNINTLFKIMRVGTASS

HA-tagged BBS4 = target: T3, HA-tagged BBS4 (UniProt Q96RK4); experiment: as above
T3 sequence: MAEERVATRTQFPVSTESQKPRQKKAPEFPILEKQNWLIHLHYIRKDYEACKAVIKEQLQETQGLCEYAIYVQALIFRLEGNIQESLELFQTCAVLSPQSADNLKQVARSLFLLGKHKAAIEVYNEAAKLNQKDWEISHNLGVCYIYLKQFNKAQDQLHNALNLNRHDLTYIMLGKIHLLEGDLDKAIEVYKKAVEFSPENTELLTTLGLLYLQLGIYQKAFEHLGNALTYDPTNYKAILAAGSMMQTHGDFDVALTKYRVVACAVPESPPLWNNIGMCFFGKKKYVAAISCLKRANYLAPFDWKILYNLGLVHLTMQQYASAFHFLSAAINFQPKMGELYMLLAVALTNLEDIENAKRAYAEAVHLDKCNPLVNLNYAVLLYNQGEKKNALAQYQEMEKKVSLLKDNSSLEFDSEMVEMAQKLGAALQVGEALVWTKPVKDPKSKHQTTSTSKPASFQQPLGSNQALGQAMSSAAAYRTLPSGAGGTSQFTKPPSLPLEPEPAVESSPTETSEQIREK

HA-tagged BBS7 = target: T4, HA-tagged BBS7 (UniProt Q8IWZ6); experiment: as above
T4 sequence: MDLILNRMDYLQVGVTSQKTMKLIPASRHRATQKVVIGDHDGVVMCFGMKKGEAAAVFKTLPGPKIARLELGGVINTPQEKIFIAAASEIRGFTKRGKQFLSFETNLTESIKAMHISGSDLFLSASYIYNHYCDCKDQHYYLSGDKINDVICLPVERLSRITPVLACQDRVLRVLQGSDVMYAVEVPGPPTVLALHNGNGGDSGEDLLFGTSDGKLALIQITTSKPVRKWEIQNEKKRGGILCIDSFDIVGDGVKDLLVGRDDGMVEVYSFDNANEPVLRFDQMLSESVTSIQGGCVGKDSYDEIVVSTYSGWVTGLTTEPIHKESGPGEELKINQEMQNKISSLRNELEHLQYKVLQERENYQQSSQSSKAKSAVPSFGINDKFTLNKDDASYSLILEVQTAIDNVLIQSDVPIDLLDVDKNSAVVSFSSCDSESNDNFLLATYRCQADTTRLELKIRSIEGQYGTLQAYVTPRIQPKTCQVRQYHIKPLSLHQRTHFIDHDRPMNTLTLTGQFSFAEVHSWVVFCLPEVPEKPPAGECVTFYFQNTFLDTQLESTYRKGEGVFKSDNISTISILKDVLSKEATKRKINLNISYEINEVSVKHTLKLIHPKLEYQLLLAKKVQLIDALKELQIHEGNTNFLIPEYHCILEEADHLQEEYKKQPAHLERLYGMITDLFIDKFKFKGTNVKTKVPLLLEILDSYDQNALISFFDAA

[1] = target: T5, endogenous PJA2 (human (endogenous in HEK293)) (UniProt O43164); experiment: co-IP; endogenous proteins; HEK293 cell lysates immunoprecipitated with anti-PJA2 or control IgG; immunoblot for PJA2 and BBS2
T5 sequence: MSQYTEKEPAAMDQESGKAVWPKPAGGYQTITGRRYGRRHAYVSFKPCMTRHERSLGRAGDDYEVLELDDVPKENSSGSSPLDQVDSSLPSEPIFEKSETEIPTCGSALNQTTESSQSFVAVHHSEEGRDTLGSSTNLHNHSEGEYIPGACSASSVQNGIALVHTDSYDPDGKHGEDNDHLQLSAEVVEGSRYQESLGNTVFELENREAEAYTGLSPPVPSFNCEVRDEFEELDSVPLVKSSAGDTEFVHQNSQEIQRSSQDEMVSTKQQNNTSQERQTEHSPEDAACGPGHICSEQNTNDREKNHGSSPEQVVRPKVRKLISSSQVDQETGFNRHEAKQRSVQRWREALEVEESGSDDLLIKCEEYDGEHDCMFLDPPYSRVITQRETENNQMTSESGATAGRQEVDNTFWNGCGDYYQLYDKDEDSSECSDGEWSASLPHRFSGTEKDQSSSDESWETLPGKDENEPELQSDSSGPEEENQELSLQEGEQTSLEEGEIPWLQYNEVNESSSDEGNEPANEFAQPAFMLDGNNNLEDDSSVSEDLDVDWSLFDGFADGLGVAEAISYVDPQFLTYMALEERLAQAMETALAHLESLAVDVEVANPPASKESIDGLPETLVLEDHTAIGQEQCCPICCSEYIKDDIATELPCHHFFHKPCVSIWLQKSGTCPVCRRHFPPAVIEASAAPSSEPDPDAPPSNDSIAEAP

binding (HA-tagged BBS1): no binding | binding (HA-tagged BBS2): no binding
B1: flag-PJA2 mutant (Δ550‐570) (enzyme, UniProt O43164)
chain: MSQYTEKEPAAMDQESGKAVWPKPAGGYQTITGRRYGRRHAYVSFKPCMTRHERSLGRAGDDYEVLELDDVPKENSSGSSPLDQVDSSLPSEPIFEKSETEIPTCGSALNQTTESSQSFVAVHHSEEGRDTLGSSTNLHNHSEGEYIPGACSASSVQNGIALVHTDSYDPDGKHGEDNDHLQLSAEVVEGSRYQESLGNTVFELENREAEAYTGLSPPVPSFNCEVRDEFEELDSVPLVKSSAGDTEFVHQNSQEIQRSSQDEMVSTKQQNNTSQERQTEHSPEDAACGPGHICSEQNTNDREKNHGSSPEQVVRPKVRKLISSSQVDQETGFNRHEAKQRSVQRWREALEVEESGSDDLLIKCEEYDGEHDCMFLDPPYSRVITQRETENNQMTSESGATAGRQEVDNTFWNGCGDYYQLYDKDEDSSECSDGEWSASLPHRFSGTEKDQSSSDESWETLPGKDENEPELQSDSSGPEEENQELSLQEGEQTSLEEGEIPWLQYNEVNESSSDEGNEPANEFAQPAFMLDGNNNLEDDSSVSEDLDVDPQFLTYMALEERLAQAMETALAHLESLAVDVEVANPPASKESIDGLPETLVLEDHTAIGQEQCCPICCSEYIKDDIATELPCHHFFHKPCVSIWLQKSGTCPVCRRHFPPAVIEASAAPSSEPDPDAPPSNDSIAEAP

binding (HA-tagged BBS1): binds | binding (HA-tagged BBS2): binds | binding (HA-tagged BBS4): binds | binding (HA-tagged BBS7): binds
B2: flag-PJA2 (wild type) (enzyme, UniProt O43164 1-708)
chain: T5 sequence

binding [1]: binds
B3: endogenous BBS2 (protein, UniProt Q9BXC9 1-721)
chain: T2 sequence
